Differences between knockout arms are mostly noise.
System: MDA-MB-231
Assay: relative cell number vs DMSO control (72 h) (% of DMSO); higher = less growth inhibition (more cells)
Description: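 QMAP-Seq: a pool of 5 breast cancer cell lines (ZR-75-1, SKBR3, HCC-38, MDA-MB-231, BT-20), each carrying 12 doxycycline-inducible Cas9 sgRNA perturbations (11 knockouts plus non-targeting sgNT), was treated with compounds for 72 h at four 10-fold doses (10 nM-10 uM or 1 nM-1 uM range). Barcodes were amplified and sequenced, and cell number was interpolated from 293T spike-in standard curves. The result is expressed as % of the median of DMSO wells. Two biological replicates.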

CS(=O)(=O)N1CCN(Cc2cc3nc(-c4cccc5[nH]ncc45)nc(N4CCOCC4)c3s2)CC1 [GDC0941]
Conditions	relative cell number
sgRNA knockout: sgATF3, 10 nM	107
sgRNA knockout: sgATF3, 100 nM	91.8
sgRNA knockout: sgATF3, 1000 nM	73.2
sgRNA knockout: sgATF3, 10000 nM	60
sgRNA knockout: sgATF4, 10 nM	139
sgRNA knockout: sgATF4, 100 nM	88
sgRNA knockout: sgATF4, 1000 nM	75.2
sgRNA knockout: sgATF4, 10000 nM	71.2
sgRNA knockout: sgATF6, 10 nM	91.1
sgRNA knockout: sgATF6, 100 nM	95.3
sgRNA knockout: sgATF6, 1000 nM	98.3
sgRNA knockout: sgATF6, 10000 nM	49.1
sgRNA knockout: sgATG7, 10 nM	98.4
sgRNA knockout: sgATG7, 100 nM	113
sgRNA knockout: sgATG7, 1000 nM	84.2
sgRNA knockout: sgATG7, 10000 nM	47.3
sgRNA knockout: sgERN1, 10 nM	83.7
sgRNA knockout: sgERN1, 100 nM	104
sgRNA knockout: sgERN1, 1000 nM	77.8
sgRNA knockout: sgERN1, 10000 nM	47.5
sgRNA knockout: sgHSF1, 10 nM	105.2
sgRNA knockout: sgHSF1, 100 nM	89.7
sgRNA knockout: sgHSF1, 1000 nM	70.2
sgRNA knockout: sgHSF1, 10000 nM	47.1
sgRNA knockout: sgHSF2, 10 nM	118
sgRNA knockout: sgHSF2, 100 nM	99.1
sgRNA knockout: sgHSF2, 1000 nM	62.2
sgRNA knockout: sgHSF2, 10000 nM	45
sgRNA knockout: sgKEAP1, 10 nM	90.7
sgRNA knockout: sgKEAP1, 100 nM	85.8
sgRNA knockout: sgKEAP1, 1000 nM	72.9
sgRNA knockout: sgKEAP1, 10000 nM	46.1
sgRNA knockout: sgNFE2L2, 10 nM	93.4
sgRNA knockout: sgNFE2L2, 100 nM	86
sgRNA knockout: sgNFE2L2, 1000 nM	94.9
sgRNA knockout: sgNFE2L2, 10000 nM	44.6
sgRNA knockout: sgSLC35F2, 10 nM	81.6
sgRNA knockout: sgSLC35F2, 100 nM	83.5
sgRNA knockout: sgSLC35F2, 1000 nM	91
sgRNA knockout: sgSLC35F2, 10000 nM	48
sgRNA knockout: sgXBP1, 10 nM	92
sgRNA knockout: sgXBP1, 100 nM	88.5
sgRNA knockout: sgXBP1, 1000 nM	75.3
sgRNA knockout: sgXBP1, 10000 nM	41.5

O=P1(NCCCl)OCCCN1CCCl (stereo not drawn) [Ifosfamide]
Conditions	relative cell number
sgRNA knockout: sgATF3, 10 nM	88.3
sgRNA knockout: sgATF3, 100 nM	91.7
sgRNA knockout: sgATF3, 1000 nM	108
sgRNA knockout: sgATF3, 10000 nM	87.2
sgRNA knockout: sgATF4, 10 nM	111.2
sgRNA knockout: sgATF4, 100 nM	84.5
sgRNA knockout: sgATF4, 1000 nM	116
sgRNA knockout: sgATF4, 10000 nM	120
sgRNA knockout: sgATF6, 10 nM	99
sgRNA knockout: sgATF6, 100 nM	94.5
sgRNA knockout: sgATF6, 1000 nM	123
sgRNA knockout: sgATF6, 10000 nM	104
sgRNA knockout: sgATG7, 10 nM	86.5
sgRNA knockout: sgATG7, 100 nM	84.7
sgRNA knockout: sgATG7, 1000 nM	81.4
sgRNA knockout: sgATG7, 10000 nM	102
sgRNA knockout: sgERN1, 10 nM	91.5
sgRNA knockout: sgERN1, 100 nM	78.8
sgRNA knockout: sgERN1, 1000 nM	119
sgRNA knockout: sgERN1, 10000 nM	111
sgRNA knockout: sgHSF1, 10 nM	94.5
sgRNA knockout: sgHSF1, 100 nM	84.4
sgRNA knockout: sgHSF1, 1000 nM	94.4
sgRNA knockout: sgHSF1, 10000 nM	86.7
sgRNA knockout: sgHSF2, 10 nM	103
sgRNA knockout: sgHSF2, 100 nM	94.8
sgRNA knockout: sgHSF2, 1000 nM	95.6
sgRNA knockout: sgHSF2, 10000 nM	81.4
sgRNA knockout: sgKEAP1, 10 nM	145
sgRNA knockout: sgKEAP1, 100 nM	106
sgRNA knockout: sgKEAP1, 1000 nM	87.9
sgRNA knockout: sgKEAP1, 10000 nM	88.4
sgRNA knockout: sgNFE2L2, 10 nM	94.4
sgRNA knockout: sgNFE2L2, 100 nM	97.7
sgRNA knockout: sgNFE2L2, 1000 nM	90.3
sgRNA knockout: sgNFE2L2, 10000 nM	94.4
sgRNA knockout: sgSLC35F2, 10 nM	88.6
sgRNA knockout: sgSLC35F2, 100 nM	82
sgRNA knockout: sgSLC35F2, 1000 nM	95.2
sgRNA knockout: sgSLC35F2, 10000 nM	93.2
sgRNA knockout: sgXBP1, 10 nM	91
sgRNA knockout: sgXBP1, 100 nM	91.9
sgRNA knockout: sgXBP1, 1000 nM	114
sgRNA knockout: sgXBP1, 10000 nM	94.4

From the supplement of paper PMC7661543
